# Primary screen of a compound library

Chains of the proteins cited; added tags and fusions are not shown.
UniProt E9BF75, entry or part of it: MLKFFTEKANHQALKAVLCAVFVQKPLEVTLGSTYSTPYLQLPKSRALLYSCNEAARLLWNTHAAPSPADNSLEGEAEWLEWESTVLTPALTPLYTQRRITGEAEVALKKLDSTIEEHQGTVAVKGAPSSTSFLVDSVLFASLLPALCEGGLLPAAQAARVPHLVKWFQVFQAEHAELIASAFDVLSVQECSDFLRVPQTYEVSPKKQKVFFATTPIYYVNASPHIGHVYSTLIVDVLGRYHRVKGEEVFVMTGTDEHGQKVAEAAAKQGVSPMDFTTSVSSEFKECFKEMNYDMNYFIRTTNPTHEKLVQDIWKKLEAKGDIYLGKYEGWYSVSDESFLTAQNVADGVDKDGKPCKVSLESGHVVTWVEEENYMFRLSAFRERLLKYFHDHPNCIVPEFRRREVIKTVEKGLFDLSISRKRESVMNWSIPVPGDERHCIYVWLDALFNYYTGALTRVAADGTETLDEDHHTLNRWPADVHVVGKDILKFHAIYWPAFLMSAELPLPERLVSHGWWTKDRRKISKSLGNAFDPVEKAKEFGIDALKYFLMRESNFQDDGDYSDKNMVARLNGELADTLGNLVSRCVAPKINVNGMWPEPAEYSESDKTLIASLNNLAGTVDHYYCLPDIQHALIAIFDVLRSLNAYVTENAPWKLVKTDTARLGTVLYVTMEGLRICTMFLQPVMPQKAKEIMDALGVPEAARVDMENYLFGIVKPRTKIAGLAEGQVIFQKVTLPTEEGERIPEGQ

Results are percentages, as filed. The record does not define 0% and 100%; most values in the screen are far below 50% and negative numbers occur (in some assays of this library far below -100). This is an unselected part of the compounds tested.

A: 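Methionyl-tRNA synthetase (putative), Leishmania donovani (UniProt E9BF75). Primary screen of methionyl-tRNA synthetase; the read-out is not stated. The test concentration is not given. Values are per cent inhibition. About 68,000 compounds were tested under these conditions; 0.035% (about 24) showed 50% or more at least once.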
B: 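Assay on Mycobacterium tuberculosis, filed only as a heat shock assay from Cornell; the read-out is not stated. The concentration is filed as 10 mM, unlikely as a test dose, so the dose is not known. The record gives no direction; compounds that gave an IC50 in retests scored well above the rest, so higher reads as stronger inhibition. Of about 69,000 compounds tested this way, about 930 (1.4%) reached 50% or more in at least one test.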

Compound: COCCN1C(=O)CC(N2CCN(c3ccccc3)CC2)C1=O (stereo not shown)
A: 11.05%
B: 12.72%

Compound: O=C(C1CCCOC1)N1CCN(CC(F)(F)F)c2ccccc21 (stereo not shown)
A: 17.14%
B: 11.11%

Compound: CC(=O)NC1CCN(C(=O)c2cnc(COc3ccccc3)nc2O)C1 (stereo not shown)
A: 16.85%
B: 13.45%

Compound: CC(C)c1cc(N2CC[C@H](F)C2)n2nccc2n1
A: 12.09%
B: 7.206%

Compound: Cc1ccc(C(=O)N2CCc3ncnc(-c4cnn(C)c4)c3CC2)cn1
A: 14.21%

Compound: O=C(CCOc1ccccc1Cl)N1CCN(c2cnccn2)CC1
A: 21.86%
B: -35.63%

Compound: Cc1noc(C)c1CN1CCC2(CC1)C(c1cnn(C)c1)CC(=O)N2C.O=C(O)C(F)(F)F (stereo not shown)
B: 38.42%

Compound: CN(C)Cc1cn2c(n1)CN(C(=O)Cc1ccsc1)CC2.O=C(O)C(F)(F)F
B: -13.03%

Compound: O=S(=O)(C1CC1)N1CC[C@]2(C[C@@H](Oc3ccccn3)CO2)C1
A: 12.75%

Compound: Cc1ccccc1CN1CCC2(COCc3cnc(N(C)C)nc32)C1 (stereo not shown)
A: 17.5%

Compound: Cn1cnnc1-c1cncc(NCc2cccc3c2OC(C)(C)C3)c1
A: 7.853%
B: 2.2%

Compound: Cc1nc2c(C)cccc2cc1C(=O)N1CCC2(CCNCC2)CC1
A: 13.31%
B: 13.8%

Compound: CCCc1noc(CNc2ccc(C(=O)N3CCCC3)cc2C)n1
A: 8.262%
B: -14.95%

Compound: Cc1nnc(CN2CCCC2c2ccc(C(C)(C)C)cc2)o1 (stereo not shown)
A: 17.96%
B: -12.86%

Compound: CCn1ccnc1CN1CCCN(C(=O)c2cccc(C#N)c2)CC1
A: 4.908%
B: -10.13%

Compound: CN(CCCNC(=O)Nc1ccc(C#N)cc1)CC(F)(F)F
A: 2.341%
B: 0.632%

Compound: CCOC(=O)N(C)CC(=O)NCCc1coc(-c2ccc(C)cc2)n1
A: 17.6%
B: -13.2%

Compound: C[C@@H]1C[C@H]2CN(Cc3nccs3)C[C@H]2O1
A: 9.42%

Compound: Cc1nn(C)c2nc(O)cc(C(F)(F)C(F)(F)F)c12
A: 12.78%
B: 0.9998%

Compound: CCS(=O)(=O)c1ccccc1N1CCC(NC2CCCC2)CC1
A: 10.06%
B: 3.818%

Compound: Cc1cc(C(=O)NCC(Cc2cccc(F)c2)N2CCCCC2=O)no1 (stereo not shown)
A: 8.908%
B: 8.957%

Compound: CCCc1nnc2sc(C3CCN(C4CCN(C)CC4)CC3)nn12
A: -2.872%
B: -4.621%

Compound: COc1cc(C(=O)N2CCCC(c3cc(C)[nH]n3)C2)cc(OC)c1C (stereo not shown)
A: 4.601%
B: -34.97%

Compound: COc1cc(CNc2cc(N3CCCC3CO)ncn2)ccn1 (stereo not shown)
A: 10.84%
B: -10.26%

Compound: O=C(c1ccco1)N1CC[C@H]2[C@H]1CC(=O)N2c1cccnc1
A: 7.283%

Compound: O=C(O)C(F)(F)F.O=C(O)C(F)(F)F.[H][C@@]12CN(CC3CC3)C[C@]1([H])OCCN2c1ccc(C)nn1
B: -7.487%

Compound: CN(C)CCNC(=O)c1sc2ccccc2c1C1CCC(CN)CC1.Cl (stereo not shown)
B: 20.1%

Compound: Cn1nccc1C(=O)N1CCC(c2ncc(Cl)cc2S(C)(=O)=O)CC1
A: 0.9317%
B: -6.088%

Compound: O=C1NC2(CCc3ccccc31)CCN(Cc1cccnc1)C2 (stereo not shown)
A: 11.49%
B: -6.921%

Compound: CCc1nnc2n1CCN(CCC(=O)Nc1cc(C)on1)C2
A: 15.46%
B: 22.81%

Compound: COC(=O)CC(c1ccc(O)c(Cl)c1)c1oc(C)cc(=O)c1O (stereo not shown)
A: 14.66%
B: -3.975%

Compound: CC1(c2[nH]ncc2C(N)=O)CCN(S(=O)(=O)c2ccccc2)CC1
A: 7.477%
B: -9.778%

Compound: CNc1ncc(CN(C)C(=O)c2cccc(-n3cnnc3)c2)cn1
A: 8.125%
B: -21.24%

Compound: Cc1ccccc1SC1CCN(C(=O)C2CNCC(=O)N2)CC1 (stereo not shown)
A: 13.33%
B: 12.8%

Compound: CC(C)c1nc(C2CCCN2CCCc2nc3ccccc3o2)no1 (stereo not shown)
A: 4.575%
B: 9.637%

Compound: O=C(Nc1ccccc1)N1CCC(N2Cc3ncccc3C2=O)CC1
A: 9.964%
B: -7.3%

Compound: Cc1cc2nc(CN(C)c3ccccc3)cc(=O)n2o1
A: 11.17%
B: -17.32%

Compound: CCCOCC(=O)NS(=O)(=O)c1ccc2c(c1)OCCO2
A: 12.57%
B: 2.317%

Compound: O=C(c1cccnc1)N1CCC2(CC1)CNc1c(F)cccc12
A: 7.104%

Compound: CCN(CC)C(=O)c1ccn(COc2ccc(F)cc2F)n1
A: -22.36%
B: -6.648%

Compound: O=C(Cc1ccccc1)N1CCn2cc(Cn3cncn3)nc2C1
A: 0.6849%
B: -34.11%

Compound: CCCNC(=O)C1CCN(CC(O)c2ccccc2C(F)(F)F)CC1 (stereo not shown)
A: 14.63%
B: -13.49%

Compound: CC[C@@H](Cn1ncc2ccccc2c1=O)NC(=O)c1cnc(C)cn1
A: 9.043%
B: -8.177%

Compound: OCC(O)CSCc1ccc(F)cc1Cl (stereo not shown)
A: 15.73%
B: -13.18%

Compound: O=C(O)C(F)(F)F.O=C(O)C(F)(F)F.[H][C@@]12CCCO[C@]1([H])[C@H](N1CCN(C)CC1)CN2C(=O)Cc1ccsc1
B: -13.65%

Compound: CC(=O)N1CC(=O)N(c2ccccc2)CC12CCN(Cc1ccoc1)C2 (stereo not shown)
A: 11.22%

Compound: Cc1cnc(N2CCOCC3(CCN(c4ccccn4)C3)C2)nc1.O=C(O)C(F)(F)F.O=C(O)C(F)(F)F (stereo not shown)
B: -20.8%

Compound: CN(Cc1cnn(C)c1)CC(O)c1ccc2c(c1)OCO2 (stereo not shown)
A: 12.89%
B: -8.026%

6 of the entries, repeated:

With CC1(c2[nH]ncc2C(N)=O)CCN(S(=O)(=O)c2ccccc2)CC1 the screen gave A: 7.477%; B: -9.778%.
With O=C(c1cccnc1)N1CCC2(CC1)CNc1c(F)cccc12 the screen gave A: 7.104%.
With CN(Cc1cnn(C)c1)CC(O)c1ccc2c(c1)OCO2 (stereo not shown) the screen gave A: 12.89%; B: -8.026%.
With CC(C)c1cc(N2CC[C@H](F)C2)n2nccc2n1 the screen gave A: 12.09%; B: 7.206%.
With OCC(O)CSCc1ccc(F)cc1Cl (stereo not shown) the screen gave A: 15.73%; B: -13.18%.
With O=S(=O)(C1CC1)N1CC[C@]2(C[C@@H](Oc3ccccn3)CO2)C1 the screen gave A: 12.75%.

Measurements from “University of Dundee, Small-Polar-MMV Screening Library” (2021), ChEMBL document CHEMBL3988442.